Experimental data from article PMC10404246.
These are yes or no findings as the source states them, for the method shown. Binding seen in cells or lysates may run through a third protein. Some results given as binding are weak or reduced against the parent protein; the word gives no strength.

Protein sequences, listed by entry. Tags and fused reporters are not part of them.
UniProt P15924: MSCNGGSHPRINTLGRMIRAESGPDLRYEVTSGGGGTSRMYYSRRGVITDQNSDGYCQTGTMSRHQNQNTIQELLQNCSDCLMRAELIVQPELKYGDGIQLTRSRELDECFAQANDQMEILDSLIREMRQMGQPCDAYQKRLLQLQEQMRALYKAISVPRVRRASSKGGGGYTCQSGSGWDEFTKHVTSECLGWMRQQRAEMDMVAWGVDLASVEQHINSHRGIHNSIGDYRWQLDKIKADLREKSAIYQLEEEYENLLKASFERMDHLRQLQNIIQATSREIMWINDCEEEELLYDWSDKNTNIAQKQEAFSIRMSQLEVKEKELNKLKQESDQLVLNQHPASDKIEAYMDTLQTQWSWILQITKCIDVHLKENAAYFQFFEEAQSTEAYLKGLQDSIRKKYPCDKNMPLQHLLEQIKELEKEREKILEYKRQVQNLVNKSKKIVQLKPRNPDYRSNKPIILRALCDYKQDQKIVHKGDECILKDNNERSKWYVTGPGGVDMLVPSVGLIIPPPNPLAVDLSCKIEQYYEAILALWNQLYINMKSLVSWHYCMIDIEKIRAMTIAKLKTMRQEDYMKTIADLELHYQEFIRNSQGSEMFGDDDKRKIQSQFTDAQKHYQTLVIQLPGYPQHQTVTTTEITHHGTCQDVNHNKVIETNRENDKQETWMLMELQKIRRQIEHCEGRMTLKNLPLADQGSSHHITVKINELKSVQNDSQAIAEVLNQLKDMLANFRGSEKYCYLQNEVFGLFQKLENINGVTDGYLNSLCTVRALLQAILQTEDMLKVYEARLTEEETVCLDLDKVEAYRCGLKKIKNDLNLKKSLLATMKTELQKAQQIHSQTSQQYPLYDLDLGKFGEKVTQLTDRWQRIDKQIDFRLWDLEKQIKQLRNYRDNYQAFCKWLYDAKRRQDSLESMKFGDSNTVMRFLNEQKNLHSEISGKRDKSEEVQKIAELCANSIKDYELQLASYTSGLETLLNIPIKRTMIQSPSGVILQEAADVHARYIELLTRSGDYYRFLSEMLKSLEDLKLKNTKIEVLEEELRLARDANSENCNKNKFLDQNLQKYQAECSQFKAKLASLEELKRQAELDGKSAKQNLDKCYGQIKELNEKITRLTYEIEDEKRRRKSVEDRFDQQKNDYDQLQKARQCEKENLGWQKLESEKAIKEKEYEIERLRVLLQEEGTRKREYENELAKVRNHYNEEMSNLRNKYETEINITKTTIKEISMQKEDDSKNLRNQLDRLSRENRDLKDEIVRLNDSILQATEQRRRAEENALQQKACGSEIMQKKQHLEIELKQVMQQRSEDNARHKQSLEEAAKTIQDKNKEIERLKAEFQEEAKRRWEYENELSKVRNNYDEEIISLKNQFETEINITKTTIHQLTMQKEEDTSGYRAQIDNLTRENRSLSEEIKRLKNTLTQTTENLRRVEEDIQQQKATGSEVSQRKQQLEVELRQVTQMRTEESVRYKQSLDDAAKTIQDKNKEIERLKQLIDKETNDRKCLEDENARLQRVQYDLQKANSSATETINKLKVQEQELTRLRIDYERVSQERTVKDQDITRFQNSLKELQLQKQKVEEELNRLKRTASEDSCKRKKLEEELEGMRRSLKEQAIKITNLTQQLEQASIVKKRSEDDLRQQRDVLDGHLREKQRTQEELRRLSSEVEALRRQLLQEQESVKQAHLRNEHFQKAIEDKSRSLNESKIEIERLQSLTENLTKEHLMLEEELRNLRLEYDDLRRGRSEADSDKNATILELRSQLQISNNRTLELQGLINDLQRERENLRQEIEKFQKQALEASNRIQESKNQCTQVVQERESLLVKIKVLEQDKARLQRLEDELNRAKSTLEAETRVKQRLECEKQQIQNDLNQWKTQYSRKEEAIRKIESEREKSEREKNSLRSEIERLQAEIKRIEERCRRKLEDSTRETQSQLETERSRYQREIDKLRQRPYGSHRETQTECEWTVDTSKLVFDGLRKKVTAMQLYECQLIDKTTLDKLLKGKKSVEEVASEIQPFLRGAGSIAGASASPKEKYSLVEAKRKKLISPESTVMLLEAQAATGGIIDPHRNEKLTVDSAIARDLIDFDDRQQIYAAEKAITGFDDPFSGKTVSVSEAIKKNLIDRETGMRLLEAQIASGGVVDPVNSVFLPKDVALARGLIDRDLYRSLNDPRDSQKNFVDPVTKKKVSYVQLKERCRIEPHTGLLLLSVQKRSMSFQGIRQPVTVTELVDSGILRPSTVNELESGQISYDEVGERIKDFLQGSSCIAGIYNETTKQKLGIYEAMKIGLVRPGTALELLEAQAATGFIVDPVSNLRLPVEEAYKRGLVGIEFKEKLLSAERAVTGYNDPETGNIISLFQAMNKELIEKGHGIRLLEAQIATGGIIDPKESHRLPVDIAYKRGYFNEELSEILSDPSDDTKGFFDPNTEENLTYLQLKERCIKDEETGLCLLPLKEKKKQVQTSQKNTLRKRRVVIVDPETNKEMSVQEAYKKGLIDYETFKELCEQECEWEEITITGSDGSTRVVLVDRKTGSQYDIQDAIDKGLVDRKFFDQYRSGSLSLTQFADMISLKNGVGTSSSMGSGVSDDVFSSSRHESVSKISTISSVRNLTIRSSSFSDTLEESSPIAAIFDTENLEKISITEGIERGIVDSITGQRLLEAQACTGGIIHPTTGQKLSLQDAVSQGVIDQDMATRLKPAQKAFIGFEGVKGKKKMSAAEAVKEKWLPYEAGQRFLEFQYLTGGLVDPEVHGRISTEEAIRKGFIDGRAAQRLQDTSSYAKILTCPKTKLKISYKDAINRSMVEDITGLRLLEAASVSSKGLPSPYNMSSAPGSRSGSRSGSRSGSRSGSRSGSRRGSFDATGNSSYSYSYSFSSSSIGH

Target: T1, PP2A regulatory subunit B55α (human (endogenous in SCC9, NHEK and human skin)) (UniProt P63151)
T1 sequence: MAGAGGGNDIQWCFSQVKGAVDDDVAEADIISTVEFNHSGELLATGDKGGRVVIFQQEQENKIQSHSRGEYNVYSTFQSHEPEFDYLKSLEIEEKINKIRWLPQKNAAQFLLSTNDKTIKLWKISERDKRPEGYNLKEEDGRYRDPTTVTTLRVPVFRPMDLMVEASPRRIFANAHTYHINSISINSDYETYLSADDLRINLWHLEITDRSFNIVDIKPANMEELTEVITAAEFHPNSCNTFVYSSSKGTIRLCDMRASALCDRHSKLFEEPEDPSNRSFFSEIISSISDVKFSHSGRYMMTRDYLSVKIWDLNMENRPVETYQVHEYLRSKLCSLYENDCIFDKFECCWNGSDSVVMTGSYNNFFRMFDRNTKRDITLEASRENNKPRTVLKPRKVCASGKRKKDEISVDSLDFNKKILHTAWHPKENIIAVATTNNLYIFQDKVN
Assay: co-IP; endogenous B55α precipitated with anti-B55α antibody conjugated to agarose from SCC9 and NHEK lysates (NP40 buffer), overnight at 4 °C; blotted for DP or Dsg3

binding: binds
Substance: desmoplakin (from UniProt P15924 1-2871)
